Experimental data from PubChem BioAssay AID602313 (National Center for Advancing Translational Sciences (NCATS), 2012).
Screen size: about 390,000 compounds; about 760 (0.19%) were called active. The shares of active, inactive and inconclusive entries below differ from those in the screen. Calls come from the whole dose curve; as a rule, active = well fitted inhibition curve with a large enough effect; inconclusive = small, poorly fitted or top-dose-only effect; inactive = flat fitted curve, though single readings scatter. Potencies of inconclusive entries are doubtful fits and often do not repeat.

Test: qHTS for Inhibitors of Vif-A3F Interactions: qHTS; note: nearly all actives have a fitted effect of over 65% in size; for activity, negative = active: % of control where 0% means no effect
Settings: HeLa A3F-eYFP + Vif (tagged APOBEC3F with the HIV-1 protein that degrades it), YFP fluorescence increase; series mostly up to 46.1 µM; activity, negative = active: at the top concentration
How it was run: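 HeLa cells stably expressing A3F-eYFP plus Vif, plated and incubated overnight at 37 deg C, then exposed to compounds overnight at 37 deg C. Blocked degradation read as raised yellow fluorescence (Ex 488/Em 500-530).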
Potency is the fitted concentration of half-maximal effect.

Row | SMILES | activity, negative = active | Potency
1 | CC(=O)Nc1ccc(S(=O)(=O)NC(C)C(=O)NC(C)c2ccccc2)cc1 (stereo not given) | inactive: 8.46% | 
2 | O=C(COc1ccccc1-c1ccccc1)N/N=C/c1ccc2ccccc2c1 |  | inconclusive: 35.5 µM [inhibitor, single point]
3 | Cc1ccc(S(=O)(=O)NNc2c3ccccc3nc3ccc(Cl)cc23)cc1 | inactive: -14.9% | 
4 | CCN1C(=O)/C(=C/N2CCc3ccccc3C2)SC1=S |  | inconclusive: 25.1 µM [inhibitor, single point]
5 | COc1ccc(C2CN=NC23CCCc2ccccc2C3=O)cc1 (stereo not given) | inactive: -0.795% | 
6 | CC[N+]1=C(C)C(C)(C)c2cc(C)ccc21 |  | inconclusive: 35.5 µM [inhibitor, single point]
7 | Cc1cc(N/N=C2\CC(C)CC(C)(C)C2)nc2ccccc12 (stereo not given) |  | inconclusive: 35.5 µM [inhibitor, single point]
8 | CCOC(=O)CNC(=S)n1cnc(N)n1 |  | inconclusive: 35.5 µM [inhibitor, single point]
9 | CCOC(=O)c1c(C)nc2ccc(Cl)cc2c1-c1ccccc1 |  | inconclusive: 11.2 µM [inhibitor, single point]
10 | COc1cc2ccccc2cc1C(=O)N(CCN(C)C)c1nc2c(C)cccc2s1 | inactive: 4.46% | 
11 | CCc1ccc(OC(C)C(=O)Nc2ccccc2C(=O)N2CCOCC2)cc1 (stereo not given) |  | inconclusive: 22.4 µM [inhibitor, partial curve, poor fit]
12 | NC(=O)N/N=C/c1c(O)ccc2oc3c(c12)CCCC3 |  | inconclusive: 35.5 µM [inhibitor, single point]
13 | O=C(NC(=S)NNC(=O)c1ccco1)c1ccc(Br)cc1 | inactive: 0.829% | 
14 | COc1ccc(/C=C/c2cc(C(F)(F)F)[nH]c(=O)n2)cc1OC |  | inconclusive: 2.82 µM [inhibitor, partial curve, poor fit]
15 | COc1cc(C(=O)CCN2CCC(c3ccccc3)C2)cc(OC)c1OC (stereo not given) | inactive: -2.12% | 
16 | COc1ccccc1N1CCN(C(=S)NC(=O)/C=C/c2ccccc2)CC1 |  | inconclusive: 35.5 µM [inhibitor, single point]
17 | C=CCN=C1CC(C)(C)CC(=O)/C1=C(\O)CCCN1C(=O)c2ccccc2C1=O |  | inconclusive: 2.82 µM [inhibitor, partial curve, poor fit]
18 | CC(=O)C1=C(S(=O)(=O)c2ccc(C)cc2)CS(=O)(=O)C1 |  | inconclusive: 3.55 µM [inhibitor, partial curve, poor fit]
19 | Cn1c(SCC(=O)Nc2ccccc2Cl)nnc1C1CC1 |  | inconclusive: 6.31 µM [inhibitor, partial curve]
20 | CC(CS(=O)(=O)c1ccc2c(c1)NC(=O)CS2)C(=O)NCc1ccccc1Cl (stereo not given) | inactive: -1.68% | 
21 | CCn1cc(S(=O)(=O)c2ccc(C)cc2)[nH]c1=O | inactive: -17% | 
22 | COc1cc(/C=C(\C#N)c2nc3ccccc3[nH]2)cc(Br)c1OCc1ccccc1 |  | inconclusive: 35.5 µM [inhibitor, partial curve, poor fit]
23 | O=C(OCCN1C(=O)c2cccc3c(N4CCOCC4)ccc(c23)C1=O)c1cccc(Cl)c1 |  | inconclusive: 20 µM [inhibitor, partial curve, poor fit]
24 | COc1ccccc1NS(=O)(=O)c1cc(NC(=O)C(C)C)ccc1N1CCCCC1 | inactive: -14% | 

Row | SMILES | activity, negative = active | Potency
25 | COc1ccc(C(Nc2ccccn2)c2oc(CO)cc(=O)c2O)cc1 (stereo not given) | inactive: 2.03% | 
26 | COc1ccc(-c2oc3cccnc3c2/C=C/c2ccc(OC)c(OC)c2)cc1 | inactive: -0.496% | 
27 | CNC(=S)N/N=C/c1c(Cl)cccc1Cl |  | inconclusive: 6.31 µM [inhibitor, partial curve, poor fit]
28 | Fc1cc(Br)ccc1Nc1nc2ccccc2n2nnnc12 |  | inconclusive: 20 µM [inhibitor, single point]
29 | N#C/C(=C\c1c(Cl)cccc1Cl)c1nc2ccccc2[nH]1 | inactive: -0.54% | 
30 | Nc1cc(Nc2ccccc2)c2nonc2c1[N+](=O)[O-] |  | inconclusive: 25.1 µM [inhibitor, single point]
31 | CC(C)CSC1=NSC2=NC(=O)/C(=C\c3coc4ccccc4c3=O)C(=N)N12 |  | active: 22.4 µM
32 | CCOC(=O)c1cccc(NC(=O)N2CC=C(c3c[nH]c4ccccc34)CC2)c1 |  | active: 5.01 µM
33 | CCOc1ccc2nc(/N=C/c3c(C)[nH]n(-c4ccc(C)cc4)c3=O)sc2c1 | inactive: -3.71% | 
34 | Cc1cc(C)n(-c2nc(C)c(C)c(=O)n2CC(=O)Nc2cccc([N+](=O)[O-])c2)n1 |  | inconclusive: 35.5 µM [inhibitor, single point]
35 | CC1(C(=O)OCC(=O)NC(=O)NCc2ccccc2)CC1(Cl)Cl (stereo not given) |  | inconclusive: 6.31 µM [inhibitor, partial curve, poor fit]
36 | CCC1OC2(C)OC(=N)C1(C#N)C(C#N)(C#N)C2c1ccccc1 (stereo not given) |  | inconclusive: 20 µM [inhibitor, single point]
37 | O=C(Nc1ccccc1C(F)(F)F)N1CC=C(c2c[nH]c3ccccc23)CC1 |  | inconclusive: 35.5 µM [inhibitor, single point]
38 | C=CCN1CN=C(NS(=O)(=O)c2ccc(NC(C)=O)cc2)NC1 |  | inconclusive: 5.01 µM [inhibitor, single point]
39 | COc1ccc(CN2CSC(=S)N(Cc3ccc(OC)cc3)C2)cc1 |  | inconclusive: 6.31 µM [inhibitor, partial curve, poor fit]
40 | COC(=O)C1=C(C)N(c2ccc(OC)cc2)C(=O)/C1=C\c1cccs1 |  | inconclusive: 35.5 µM [inhibitor, single point]
41 | COc1cccc(NC(=O)CSc2c3c(nc4ccccc24)CCCC3)c1 |  | inactive
42 | CSc1nc(SCCO)c2sc3nc(-c4ccco4)c4c(c3c2n1)CC(C)(C)OC4 |  | inconclusive: 20 µM [inhibitor, single point]
43 | COc1ccc(NC(=O)c2oc3ccccc3c2NC(=O)c2ccc(OC)c(OC)c2)c(OC)c1 |  | inconclusive: 3.55 µM [inhibitor, single point]
44 | O=C(/C=C/c1ccc(S(=O)(=O)N2CCOCC2)cc1)Nc1cc(F)ccc1F | inactive: -9.01% | 
45 | N#C/C(=C\c1cccc(O)c1)c1nc2ccccc2o1 |  | inconclusive: 11.2 µM [inhibitor, partial curve, poor fit]
46 | CN(C)S(=O)(=O)c1ccc2nnn(O)c2c1 | inactive: -12.1% | 
47 | CCCCNc1c(-c2ccc(SC3CCCCC3)cc2)nc2cnccn12 |  | inconclusive: 3.55 µM [inhibitor, partial curve, poor fit]
48 | O=C(Nc1cccc2ccccc12)/C(=C\c1cccc([N+](=O)[O-])c1)NC(=O)c1cccs1 |  | inconclusive: 6.31 µM [inhibitor, single point]

Filtered by structure, the entries above containing a nitro group on carbon
Row | SMILES | activity, negative = active | Potency
30 | Nc1cc(Nc2ccccc2)c2nonc2c1[N+](=O)[O-] |  | inconclusive: 25.1 µM [inhibitor, single point]
34 | Cc1cc(C)n(-c2nc(C)c(C)c(=O)n2CC(=O)Nc2cccc([N+](=O)[O-])c2)n1 |  | inconclusive: 35.5 µM [inhibitor, single point]
48 | O=C(Nc1cccc2ccccc12)/C(=C\c1cccc([N+](=O)[O-])c1)NC(=O)c1cccs1 |  | inconclusive: 6.31 µM [inhibitor, single point]

A draw from above in order of SMILES length, rising.
Row | SMILES | activity, negative = active | Potency
35 | CC1(C(=O)OCC(=O)NC(=O)NCc2ccccc2)CC1(Cl)Cl (stereo not given) |  | inconclusive: 6.31 µM [inhibitor, partial curve, poor fit]
37 | O=C(Nc1ccccc1C(F)(F)F)N1CC=C(c2c[nH]c3ccccc23)CC1 |  | inconclusive: 35.5 µM [inhibitor, single point]
42 | CSc1nc(SCCO)c2sc3nc(-c4ccco4)c4c(c3c2n1)CC(C)(C)OC4 |  | inconclusive: 20 µM [inhibitor, single point]

Next part.

Row | SMILES | activity, negative = active | Potency
49 | Cc1ccccc1NC(=S)NNC(=O)c1cccnc1 |  | inconclusive: 25.1 µM [inhibitor, single point]
50 | COc1ccccc1C(=O)COC(=O)C(CCSC)NC(=O)COc1ccccc1 (stereo not given) |  | inconclusive: 35.5 µM [inhibitor, single point]
51 | Nc1c(C(=O)Nc2ccccc2Br)sc2nc(-c3cccs3)ccc12 |  | inconclusive: 12.6 µM [inhibitor, single point]
52 | CCCNc1c(F)c(F)c2c(C)c3ccccc3nc2c1F |  | inconclusive: 10 µM [inhibitor, partial curve, poor fit]
53 | Cc1ccc(NC(=O)c2cc(C)no2)cc1 | inactive: -3.51% | 
54 | Cc1ccc(F)cc1S(=O)(=O)NCc1ccc(N2CCN(C)CC2)cc1 |  | inconclusive: 35.5 µM [inhibitor, single point]
55 | Cc1ccccc1C1C(C#N)=C(N)N(N(C)C)C2=C1C(=O)CC(C)(C)C2 (stereo not given) |  | inconclusive: 35.5 µM [inhibitor, single point]
56 | Cc1nn(-c2ccc(F)cc2)c2nc(N)c(C#N)c(-c3cccs3)c12 |  | inconclusive: 35.5 µM [inhibitor, single point]
57 | Cc1ccc(-c2nn(-c3cccc(F)c3)cc2CNCc2cccnc2)o1 |  | inconclusive: 35.5 µM [inhibitor, single point]
58 | Cc1cc(C)c2nc(SCC(=O)N3CC(=O)Nc4ccccc43)c(C#N)cc2c1 |  | inconclusive: 15.8 µM [inhibitor, partial curve, poor fit]
59 | CN(C)C(=O)c1ccc(NC(=O)c2cccc(S(=O)(=O)N3CCCc4ccccc43)c2)cc1 |  | inconclusive: 0.562 µM [inhibitor, partial curve, poor fit]
60 | OC(CNC1CCCCCC1)COc1cccc2ccccc12 (stereo not given) | inactive: -3.6% | 
61 | CCCCc1n[nH]c(=S)n1Cc1ccc(C)cc1 |  | inconclusive: 35.5 µM [inhibitor, single point]
62 | Cc1ccc(OCCn2cnc3c2c(=O)n(C)c(=O)n3C)cc1 |  | inconclusive: 6.31 µM [inhibitor, single point]
63 | CSC(=S)NCc1cccnc1 | inactive: 0.559% | 
64 | Cc1ccc(NC(=O)CN2C(=O)COc3ccc(S(=O)(=O)N4CCCCCC4)cc32)c(C)c1 | inactive: 7.82% | 
65 | Cc1ccc(CNC(=O)C(=O)Nc2c3c(nn2-c2ccc(F)cc2)CSC3)cc1 | inactive: -7.27% | 
66 | C=CCc1cccc(/C=N/n2cnnc2)c1O |  | inconclusive: 5.01 µM [inhibitor, single point]
67 | CCC1(c2ccccc2)NC(=O)N(CC(=O)N(C)CC(=O)Nc2ccc(F)c(F)c2F)C1=O (stereo not given) |  | inconclusive: 5.62 µM [inhibitor, single point]
68 | Cc1ccnc(NC(=O)Nc2ccc3c(c2)N(C)C(=O)CS3)c1 |  | active: 25.1 µM
69 | CN(C)c1ccc(-c2nnn(CC(=O)Nc3ccccc3N3CCOCC3)n2)cc1 | inactive: -0.22% | 
70 | Cc1cc(C)c(C)c(N=Nc2nc3ccccc3n2C)c1C |  | inconclusive: 35.5 µM [inhibitor, single point]
